Results published in PMC3794601.
Where two headings read alike, the source gives them in different places. Results are given in words; binding and its absence hold for the method and conditions named. Binding seen in cells or lysates may run through a third protein. Some binding calls cover weakened binding; strength is not graded here. For some of these results: Sequences can lack the tags named with a protein. Each block holds one molecule with its values, some of them ahead of it.

Amino acid sequences for entries named in this document (tags omitted). A change or cut given only in a name is not applied to a line headed by its entry.
UniProt P10275: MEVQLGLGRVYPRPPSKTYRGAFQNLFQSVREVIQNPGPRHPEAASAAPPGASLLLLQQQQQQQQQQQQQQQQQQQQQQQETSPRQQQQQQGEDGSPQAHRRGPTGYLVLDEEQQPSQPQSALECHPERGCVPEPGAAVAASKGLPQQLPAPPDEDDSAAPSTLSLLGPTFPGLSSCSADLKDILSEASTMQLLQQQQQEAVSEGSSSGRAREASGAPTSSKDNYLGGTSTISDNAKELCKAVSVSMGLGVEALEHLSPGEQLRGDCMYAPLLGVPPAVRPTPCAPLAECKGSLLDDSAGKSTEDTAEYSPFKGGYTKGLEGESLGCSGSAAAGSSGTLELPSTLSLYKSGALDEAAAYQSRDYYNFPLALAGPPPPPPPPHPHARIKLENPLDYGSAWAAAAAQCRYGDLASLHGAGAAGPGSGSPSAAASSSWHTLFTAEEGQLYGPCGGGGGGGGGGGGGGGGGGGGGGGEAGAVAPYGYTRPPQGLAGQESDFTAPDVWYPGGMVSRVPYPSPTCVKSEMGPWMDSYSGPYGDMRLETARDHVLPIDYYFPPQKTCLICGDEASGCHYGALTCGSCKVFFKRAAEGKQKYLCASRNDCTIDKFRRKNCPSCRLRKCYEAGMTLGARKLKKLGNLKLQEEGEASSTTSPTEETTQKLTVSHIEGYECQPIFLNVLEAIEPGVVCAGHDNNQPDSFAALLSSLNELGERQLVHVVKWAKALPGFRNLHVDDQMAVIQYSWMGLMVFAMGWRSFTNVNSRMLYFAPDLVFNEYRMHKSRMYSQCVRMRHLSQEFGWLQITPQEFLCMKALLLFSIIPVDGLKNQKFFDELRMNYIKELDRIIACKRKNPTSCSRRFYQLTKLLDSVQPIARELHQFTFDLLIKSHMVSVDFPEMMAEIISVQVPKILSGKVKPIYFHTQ
UniProt P23769: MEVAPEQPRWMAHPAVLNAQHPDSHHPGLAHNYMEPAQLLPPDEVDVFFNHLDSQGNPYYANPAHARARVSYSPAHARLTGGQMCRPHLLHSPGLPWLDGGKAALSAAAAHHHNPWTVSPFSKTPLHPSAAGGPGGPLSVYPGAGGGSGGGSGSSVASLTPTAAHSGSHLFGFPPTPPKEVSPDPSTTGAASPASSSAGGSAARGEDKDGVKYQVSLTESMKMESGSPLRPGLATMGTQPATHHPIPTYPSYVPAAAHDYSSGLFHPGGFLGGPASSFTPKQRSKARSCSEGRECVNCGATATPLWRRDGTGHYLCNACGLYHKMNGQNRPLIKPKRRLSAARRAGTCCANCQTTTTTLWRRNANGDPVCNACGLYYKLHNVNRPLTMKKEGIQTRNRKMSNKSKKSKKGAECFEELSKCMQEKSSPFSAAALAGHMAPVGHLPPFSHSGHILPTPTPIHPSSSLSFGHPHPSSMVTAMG

What was measured:
[1] = biological target: T1, N-terminal domain of CCAR1 (aa 1-249) (UniProt Q8IX12); test: pull-down; GST pull-down mapping of CCAR1 domains with AR and GATA2 (Supplementary Figure S13); details not shown
T1 sequence: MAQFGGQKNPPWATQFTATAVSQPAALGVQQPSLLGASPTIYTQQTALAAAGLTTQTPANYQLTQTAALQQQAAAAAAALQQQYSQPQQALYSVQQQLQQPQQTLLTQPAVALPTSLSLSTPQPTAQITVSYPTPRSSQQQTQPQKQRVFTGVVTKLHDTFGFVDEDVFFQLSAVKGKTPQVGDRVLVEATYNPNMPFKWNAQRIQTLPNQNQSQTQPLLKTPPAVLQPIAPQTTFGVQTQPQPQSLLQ

[2] = biological target: FLAG-tagged AR expressed in 293T cells (UniProt P10275); test: co-IP; extracts of transiently transfected 293T cells immunoprecipitated with anti-FLAG antibody or normal IgG; immunoblot; in Figure 5C with or without co-expressed CCAR1
[3] = biological target: T2, FLAG-tagged CCAR1 expressed in 293T cells (UniProt Q8IX12); test: as above
T2 sequence: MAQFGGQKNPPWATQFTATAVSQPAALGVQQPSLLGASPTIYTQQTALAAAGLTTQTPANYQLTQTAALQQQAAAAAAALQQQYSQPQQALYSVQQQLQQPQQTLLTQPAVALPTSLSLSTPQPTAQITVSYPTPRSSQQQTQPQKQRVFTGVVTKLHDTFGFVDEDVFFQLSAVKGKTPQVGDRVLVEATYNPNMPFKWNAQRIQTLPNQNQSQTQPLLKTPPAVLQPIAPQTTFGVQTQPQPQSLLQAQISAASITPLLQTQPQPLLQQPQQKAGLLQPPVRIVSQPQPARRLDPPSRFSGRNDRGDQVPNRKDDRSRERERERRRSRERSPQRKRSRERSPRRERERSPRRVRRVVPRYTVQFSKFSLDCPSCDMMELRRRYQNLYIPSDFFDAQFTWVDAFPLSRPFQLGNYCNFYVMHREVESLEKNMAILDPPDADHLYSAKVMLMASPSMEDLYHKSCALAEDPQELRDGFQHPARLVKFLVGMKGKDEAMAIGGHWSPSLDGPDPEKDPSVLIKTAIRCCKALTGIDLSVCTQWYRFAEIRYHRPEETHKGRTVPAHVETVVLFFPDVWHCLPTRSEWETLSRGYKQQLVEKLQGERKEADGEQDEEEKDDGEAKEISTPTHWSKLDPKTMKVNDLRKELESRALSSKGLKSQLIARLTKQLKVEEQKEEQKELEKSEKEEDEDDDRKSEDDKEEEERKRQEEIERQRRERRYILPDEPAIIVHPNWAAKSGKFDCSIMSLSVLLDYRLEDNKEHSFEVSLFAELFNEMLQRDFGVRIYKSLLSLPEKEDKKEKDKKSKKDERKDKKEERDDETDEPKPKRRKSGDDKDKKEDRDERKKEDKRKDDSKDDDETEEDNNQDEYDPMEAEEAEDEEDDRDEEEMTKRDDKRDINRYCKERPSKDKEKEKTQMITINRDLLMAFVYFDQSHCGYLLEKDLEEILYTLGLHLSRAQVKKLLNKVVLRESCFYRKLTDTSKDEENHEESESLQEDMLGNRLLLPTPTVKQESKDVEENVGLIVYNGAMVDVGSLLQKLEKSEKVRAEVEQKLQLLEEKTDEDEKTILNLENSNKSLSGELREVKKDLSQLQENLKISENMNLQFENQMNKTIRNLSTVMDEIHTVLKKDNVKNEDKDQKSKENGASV

[4] = biological target: T3, Central domain of CCAR1 (aa 203-660) (UniProt Q8IX12); test: pull-down; GST pull-down mapping of CCAR1 domains with AR and GATA2 (Supplementary Figure S13); details not shown
T3 sequence: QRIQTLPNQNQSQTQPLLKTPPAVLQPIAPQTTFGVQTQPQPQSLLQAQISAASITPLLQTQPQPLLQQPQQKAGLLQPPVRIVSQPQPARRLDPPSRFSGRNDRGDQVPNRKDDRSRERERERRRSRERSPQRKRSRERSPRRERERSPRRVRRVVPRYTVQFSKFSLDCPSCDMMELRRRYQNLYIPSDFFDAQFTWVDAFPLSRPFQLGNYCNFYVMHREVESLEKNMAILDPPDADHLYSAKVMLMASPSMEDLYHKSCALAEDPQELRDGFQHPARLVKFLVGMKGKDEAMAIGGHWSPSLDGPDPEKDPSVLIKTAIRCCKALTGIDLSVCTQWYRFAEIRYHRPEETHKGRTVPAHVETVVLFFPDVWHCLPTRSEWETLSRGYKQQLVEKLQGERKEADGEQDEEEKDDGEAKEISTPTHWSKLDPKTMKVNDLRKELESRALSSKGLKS

Recombinant GST-CCAR1 = biological target: T4, Recombinant GST-CCAR1 (UniProt Q8IX12); test: pull-down; in vitro translated HA-tagged GATA2 incubated with recombinant GST-CCAR1; bound proteins detected by immunoblot with anti-HA; only the target purified
T4 sequence: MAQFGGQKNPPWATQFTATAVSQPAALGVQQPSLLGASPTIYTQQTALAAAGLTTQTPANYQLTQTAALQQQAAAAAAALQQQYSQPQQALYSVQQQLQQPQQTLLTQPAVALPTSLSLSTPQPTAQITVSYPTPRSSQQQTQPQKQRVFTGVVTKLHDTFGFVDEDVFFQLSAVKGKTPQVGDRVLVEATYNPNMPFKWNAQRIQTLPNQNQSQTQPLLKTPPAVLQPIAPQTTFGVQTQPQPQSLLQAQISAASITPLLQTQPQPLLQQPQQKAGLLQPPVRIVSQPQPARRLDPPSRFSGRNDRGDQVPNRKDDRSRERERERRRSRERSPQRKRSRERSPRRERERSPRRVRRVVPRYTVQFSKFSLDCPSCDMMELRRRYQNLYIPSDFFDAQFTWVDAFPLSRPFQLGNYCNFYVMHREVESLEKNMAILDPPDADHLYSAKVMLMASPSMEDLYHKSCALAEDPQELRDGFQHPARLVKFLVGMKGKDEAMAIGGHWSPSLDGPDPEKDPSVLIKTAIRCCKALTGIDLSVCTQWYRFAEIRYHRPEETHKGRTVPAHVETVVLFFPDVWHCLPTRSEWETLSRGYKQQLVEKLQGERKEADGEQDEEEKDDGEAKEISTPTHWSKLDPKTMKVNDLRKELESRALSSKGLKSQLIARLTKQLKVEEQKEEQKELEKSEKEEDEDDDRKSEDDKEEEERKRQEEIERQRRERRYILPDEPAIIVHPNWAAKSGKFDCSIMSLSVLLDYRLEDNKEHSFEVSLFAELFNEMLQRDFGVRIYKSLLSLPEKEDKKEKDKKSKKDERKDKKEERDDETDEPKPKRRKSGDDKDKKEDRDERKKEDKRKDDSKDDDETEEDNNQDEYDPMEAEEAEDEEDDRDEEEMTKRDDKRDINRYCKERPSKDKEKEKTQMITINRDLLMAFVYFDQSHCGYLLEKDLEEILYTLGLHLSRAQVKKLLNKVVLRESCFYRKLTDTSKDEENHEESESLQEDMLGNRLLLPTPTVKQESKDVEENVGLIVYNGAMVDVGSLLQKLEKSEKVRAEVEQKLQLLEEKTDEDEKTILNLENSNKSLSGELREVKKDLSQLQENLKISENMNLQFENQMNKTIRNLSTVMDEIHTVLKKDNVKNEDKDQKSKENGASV

[5] = biological target: FLAG-tagged AR expressed in 293T cells (UniProt P10275); test: co-IP; extracts of transiently transfected 293T cells immunoprecipitated with anti-FLAG antibody or normal IgG; immunoblot; in Figure 5C with or without co-expressed CCAR1; remark: listed apart in the source
[6] = biological target: AR as used in the in vitro GST pull-down assays with CCAR1 (Supplementary Figures S1B and S13) (UniProt P10275); test: pull-down; in vitro GST pull-down of CCAR1 and AR or AR regions, with and without hormone (Supplementary Figure S1B-E); which partner carried GST not shown

- binding [1]: binds
Molecule: AR as used in the in vitro GST pull-down assays with CCAR1 (Supplementary Figures S1B and S13) (from UniProt P10275 1-920)

- binding [6]: binds
B2: CCAR1 as used in the in vitro GST pull-down assays with AR (Supplementary Figure S1B-E) (protein, UniProt Q8IX12 1-1150)
chain: MAQFGGQKNPPWATQFTATAVSQPAALGVQQPSLLGASPTIYTQQTALAAAGLTTQTPANYQLTQTAALQQQAAAAAAALQQQYSQPQQALYSVQQQLQQPQQTLLTQPAVALPTSLSLSTPQPTAQITVSYPTPRSSQQQTQPQKQRVFTGVVTKLHDTFGFVDEDVFFQLSAVKGKTPQVGDRVLVEATYNPNMPFKWNAQRIQTLPNQNQSQTQPLLKTPPAVLQPIAPQTTFGVQTQPQPQSLLQAQISAASITPLLQTQPQPLLQQPQQKAGLLQPPVRIVSQPQPARRLDPPSRFSGRNDRGDQVPNRKDDRSRERERERRRSRERSPQRKRSRERSPRRERERSPRRVRRVVPRYTVQFSKFSLDCPSCDMMELRRRYQNLYIPSDFFDAQFTWVDAFPLSRPFQLGNYCNFYVMHREVESLEKNMAILDPPDADHLYSAKVMLMASPSMEDLYHKSCALAEDPQELRDGFQHPARLVKFLVGMKGKDEAMAIGGHWSPSLDGPDPEKDPSVLIKTAIRCCKALTGIDLSVCTQWYRFAEIRYHRPEETHKGRTVPAHVETVVLFFPDVWHCLPTRSEWETLSRGYKQQLVEKLQGERKEADGEQDEEEKDDGEAKEISTPTHWSKLDPKTMKVNDLRKELESRALSSKGLKSQLIARLTKQLKVEEQKEEQKELEKSEKEEDEDDDRKSEDDKEEEERKRQEEIERQRRERRYILPDEPAIIVHPNWAAKSGKFDCSIMSLSVLLDYRLEDNKEHSFEVSLFAELFNEMLQRDFGVRIYKSLLSLPEKEDKKEKDKKSKKDERKDKKEERDDETDEPKPKRRKSGDDKDKKEDRDERKKEDKRKDDSKDDDETEEDNNQDEYDPMEAEEAEDEEDDRDEEEMTKRDDKRDINRYCKERPSKDKEKEKTQMITINRDLLMAFVYFDQSHCGYLLEKDLEEILYTLGLHLSRAQVKKLLNKVVLRESCFYRKLTDTSKDEENHEESESLQEDMLGNRLLLPTPTVKQESKDVEENVGLIVYNGAMVDVGSLLQKLEKSEKVRAEVEQKLQLLEEKTDEDEKTILNLENSNKSLSGELREVKKDLSQLQENLKISENMNLQFENQMNKTIRNLSTVMDEIHTVLKKDNVKNEDKDQKSKENGASV

Further lines, the molecule ahead of its results:

Molecule: HA-tagged GATA2 expressed in 293T cells (from UniProt P23769 1-480)
- binding [2]: binds
- binding [3]: binds

Molecule: In vitro translated HA-tagged GATA2 (from UniProt P23769 1-480)
- binding [4]: binds
- binding (Recombinant GST-CCAR1): binds

B1: HA-tagged CCAR1 expressed in 293T cells (protein, UniProt Q8IX12 1-1150)
chain: MAQFGGQKNPPWATQFTATAVSQPAALGVQQPSLLGASPTIYTQQTALAAAGLTTQTPANYQLTQTAALQQQAAAAAAALQQQYSQPQQALYSVQQQLQQPQQTLLTQPAVALPTSLSLSTPQPTAQITVSYPTPRSSQQQTQPQKQRVFTGVVTKLHDTFGFVDEDVFFQLSAVKGKTPQVGDRVLVEATYNPNMPFKWNAQRIQTLPNQNQSQTQPLLKTPPAVLQPIAPQTTFGVQTQPQPQSLLQAQISAASITPLLQTQPQPLLQQPQQKAGLLQPPVRIVSQPQPARRLDPPSRFSGRNDRGDQVPNRKDDRSRERERERRRSRERSPQRKRSRERSPRRERERSPRRVRRVVPRYTVQFSKFSLDCPSCDMMELRRRYQNLYIPSDFFDAQFTWVDAFPLSRPFQLGNYCNFYVMHREVESLEKNMAILDPPDADHLYSAKVMLMASPSMEDLYHKSCALAEDPQELRDGFQHPARLVKFLVGMKGKDEAMAIGGHWSPSLDGPDPEKDPSVLIKTAIRCCKALTGIDLSVCTQWYRFAEIRYHRPEETHKGRTVPAHVETVVLFFPDVWHCLPTRSEWETLSRGYKQQLVEKLQGERKEADGEQDEEEKDDGEAKEISTPTHWSKLDPKTMKVNDLRKELESRALSSKGLKSQLIARLTKQLKVEEQKEEQKELEKSEKEEDEDDDRKSEDDKEEEERKRQEEIERQRRERRYILPDEPAIIVHPNWAAKSGKFDCSIMSLSVLLDYRLEDNKEHSFEVSLFAELFNEMLQRDFGVRIYKSLLSLPEKEDKKEKDKKSKKDERKDKKEERDDETDEPKPKRRKSGDDKDKKEDRDERKKEDKRKDDSKDDDETEEDNNQDEYDPMEAEEAEDEEDDRDEEEMTKRDDKRDINRYCKERPSKDKEKEKTQMITINRDLLMAFVYFDQSHCGYLLEKDLEEILYTLGLHLSRAQVKKLLNKVVLRESCFYRKLTDTSKDEENHEESESLQEDMLGNRLLLPTPTVKQESKDVEENVGLIVYNGAMVDVGSLLQKLEKSEKVRAEVEQKLQLLEEKTDEDEKTILNLENSNKSLSGELREVKKDLSQLQENLKISENMNLQFENQMNKTIRNLSTVMDEIHTVLKKDNVKNEDKDQKSKENGASV
- binding [5]: binds
